The target of this assay is T1, IgLON5 (mouse (endogenous in primary hippocampal neurons)) (UniProt Q8HW98).
T1 sequence: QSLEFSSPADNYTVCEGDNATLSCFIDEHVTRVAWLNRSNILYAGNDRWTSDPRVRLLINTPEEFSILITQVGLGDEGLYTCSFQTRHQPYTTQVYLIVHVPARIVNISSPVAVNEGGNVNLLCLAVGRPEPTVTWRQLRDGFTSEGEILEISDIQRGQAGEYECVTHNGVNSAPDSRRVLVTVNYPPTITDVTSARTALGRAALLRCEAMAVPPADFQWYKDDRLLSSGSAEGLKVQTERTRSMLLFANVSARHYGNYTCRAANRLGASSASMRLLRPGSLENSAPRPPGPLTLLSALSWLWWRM
Briefly: proximity labelling; live primary mouse hippocampal neurons (DIV12) treated with α-IgLON5#1 or pCtrl (1 μg/ml, 60 min, 37°C), fixed with 4% PFA, HRP-conjugated α-human secondary antibody, 250 μM biotin-tyramide and 50 μM H2O2 for 1 min; streptavidin bead pulldown and MS; enrichment of α-IgLON5#1 against pCtrl.

Protein sequences, listed by entry. Tags and fused reporters are not part of them. Lines headed by an entry give the natural chain unless they say otherwise; changes in a name come on top. Residues count along the entry.
UniProt P58391: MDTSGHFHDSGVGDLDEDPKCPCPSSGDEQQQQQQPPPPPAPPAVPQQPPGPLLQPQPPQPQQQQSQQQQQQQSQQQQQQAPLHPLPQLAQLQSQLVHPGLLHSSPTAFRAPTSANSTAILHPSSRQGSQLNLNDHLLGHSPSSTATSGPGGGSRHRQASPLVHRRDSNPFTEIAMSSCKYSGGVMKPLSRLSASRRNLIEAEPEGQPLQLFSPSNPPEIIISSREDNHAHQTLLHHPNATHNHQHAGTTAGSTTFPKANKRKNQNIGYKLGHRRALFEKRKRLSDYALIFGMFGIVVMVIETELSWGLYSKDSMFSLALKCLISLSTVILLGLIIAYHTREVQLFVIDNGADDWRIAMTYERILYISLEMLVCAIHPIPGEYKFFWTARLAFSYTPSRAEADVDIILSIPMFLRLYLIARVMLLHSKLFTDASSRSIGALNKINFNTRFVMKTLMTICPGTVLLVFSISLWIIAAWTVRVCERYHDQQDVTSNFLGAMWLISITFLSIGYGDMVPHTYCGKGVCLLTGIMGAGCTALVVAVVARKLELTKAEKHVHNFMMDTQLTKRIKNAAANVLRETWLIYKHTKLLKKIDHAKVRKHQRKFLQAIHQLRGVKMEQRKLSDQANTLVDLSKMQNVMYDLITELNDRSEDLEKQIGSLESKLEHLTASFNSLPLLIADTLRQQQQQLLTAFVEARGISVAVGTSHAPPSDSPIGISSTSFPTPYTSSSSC
UniProt O08532, residues 25-1103: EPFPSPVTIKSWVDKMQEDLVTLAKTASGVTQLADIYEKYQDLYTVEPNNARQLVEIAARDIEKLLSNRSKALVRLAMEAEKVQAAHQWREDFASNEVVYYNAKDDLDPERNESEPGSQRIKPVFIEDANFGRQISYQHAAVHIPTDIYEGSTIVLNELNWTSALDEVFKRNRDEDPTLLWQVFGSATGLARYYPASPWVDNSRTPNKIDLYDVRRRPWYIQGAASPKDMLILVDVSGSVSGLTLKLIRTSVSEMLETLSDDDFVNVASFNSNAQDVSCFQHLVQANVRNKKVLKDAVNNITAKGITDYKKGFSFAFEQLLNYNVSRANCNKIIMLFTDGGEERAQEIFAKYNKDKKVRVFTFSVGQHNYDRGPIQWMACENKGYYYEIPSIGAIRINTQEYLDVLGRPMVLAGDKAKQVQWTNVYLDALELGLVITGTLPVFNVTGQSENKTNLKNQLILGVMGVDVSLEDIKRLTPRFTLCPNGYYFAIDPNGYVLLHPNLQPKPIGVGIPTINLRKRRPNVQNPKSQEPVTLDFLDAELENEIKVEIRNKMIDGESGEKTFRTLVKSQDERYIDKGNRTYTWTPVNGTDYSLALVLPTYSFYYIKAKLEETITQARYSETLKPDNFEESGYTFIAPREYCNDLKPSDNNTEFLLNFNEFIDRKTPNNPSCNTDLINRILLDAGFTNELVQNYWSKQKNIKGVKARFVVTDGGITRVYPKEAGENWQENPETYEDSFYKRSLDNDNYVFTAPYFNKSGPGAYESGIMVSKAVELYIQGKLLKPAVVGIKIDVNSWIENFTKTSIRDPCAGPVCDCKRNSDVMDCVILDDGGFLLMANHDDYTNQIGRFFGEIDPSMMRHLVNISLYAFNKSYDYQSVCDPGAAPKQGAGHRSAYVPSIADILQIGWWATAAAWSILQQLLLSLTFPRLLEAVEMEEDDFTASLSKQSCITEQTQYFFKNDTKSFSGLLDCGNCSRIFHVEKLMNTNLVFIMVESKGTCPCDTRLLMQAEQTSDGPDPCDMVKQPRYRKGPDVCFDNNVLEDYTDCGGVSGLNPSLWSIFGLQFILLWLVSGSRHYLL
UniProt P15116, residues 160-906: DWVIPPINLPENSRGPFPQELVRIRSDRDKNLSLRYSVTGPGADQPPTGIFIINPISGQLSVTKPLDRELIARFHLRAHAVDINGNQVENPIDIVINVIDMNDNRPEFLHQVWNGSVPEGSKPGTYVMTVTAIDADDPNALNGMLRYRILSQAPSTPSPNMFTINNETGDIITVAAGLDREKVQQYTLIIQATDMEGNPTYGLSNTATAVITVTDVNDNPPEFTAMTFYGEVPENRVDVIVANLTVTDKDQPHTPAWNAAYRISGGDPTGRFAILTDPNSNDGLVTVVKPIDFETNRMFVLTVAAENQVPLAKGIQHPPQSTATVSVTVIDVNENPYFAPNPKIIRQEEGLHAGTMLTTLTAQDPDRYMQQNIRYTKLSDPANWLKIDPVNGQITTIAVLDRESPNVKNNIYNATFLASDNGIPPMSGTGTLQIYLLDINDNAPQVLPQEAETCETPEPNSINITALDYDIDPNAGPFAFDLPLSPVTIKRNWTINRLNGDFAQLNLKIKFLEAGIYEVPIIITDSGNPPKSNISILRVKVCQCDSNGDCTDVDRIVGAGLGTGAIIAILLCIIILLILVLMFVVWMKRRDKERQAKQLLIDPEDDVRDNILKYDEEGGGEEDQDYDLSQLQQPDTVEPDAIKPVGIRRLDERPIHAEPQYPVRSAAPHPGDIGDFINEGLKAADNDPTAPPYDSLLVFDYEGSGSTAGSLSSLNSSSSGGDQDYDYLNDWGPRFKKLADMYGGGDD
UniProt Q61738, residues 34-1179: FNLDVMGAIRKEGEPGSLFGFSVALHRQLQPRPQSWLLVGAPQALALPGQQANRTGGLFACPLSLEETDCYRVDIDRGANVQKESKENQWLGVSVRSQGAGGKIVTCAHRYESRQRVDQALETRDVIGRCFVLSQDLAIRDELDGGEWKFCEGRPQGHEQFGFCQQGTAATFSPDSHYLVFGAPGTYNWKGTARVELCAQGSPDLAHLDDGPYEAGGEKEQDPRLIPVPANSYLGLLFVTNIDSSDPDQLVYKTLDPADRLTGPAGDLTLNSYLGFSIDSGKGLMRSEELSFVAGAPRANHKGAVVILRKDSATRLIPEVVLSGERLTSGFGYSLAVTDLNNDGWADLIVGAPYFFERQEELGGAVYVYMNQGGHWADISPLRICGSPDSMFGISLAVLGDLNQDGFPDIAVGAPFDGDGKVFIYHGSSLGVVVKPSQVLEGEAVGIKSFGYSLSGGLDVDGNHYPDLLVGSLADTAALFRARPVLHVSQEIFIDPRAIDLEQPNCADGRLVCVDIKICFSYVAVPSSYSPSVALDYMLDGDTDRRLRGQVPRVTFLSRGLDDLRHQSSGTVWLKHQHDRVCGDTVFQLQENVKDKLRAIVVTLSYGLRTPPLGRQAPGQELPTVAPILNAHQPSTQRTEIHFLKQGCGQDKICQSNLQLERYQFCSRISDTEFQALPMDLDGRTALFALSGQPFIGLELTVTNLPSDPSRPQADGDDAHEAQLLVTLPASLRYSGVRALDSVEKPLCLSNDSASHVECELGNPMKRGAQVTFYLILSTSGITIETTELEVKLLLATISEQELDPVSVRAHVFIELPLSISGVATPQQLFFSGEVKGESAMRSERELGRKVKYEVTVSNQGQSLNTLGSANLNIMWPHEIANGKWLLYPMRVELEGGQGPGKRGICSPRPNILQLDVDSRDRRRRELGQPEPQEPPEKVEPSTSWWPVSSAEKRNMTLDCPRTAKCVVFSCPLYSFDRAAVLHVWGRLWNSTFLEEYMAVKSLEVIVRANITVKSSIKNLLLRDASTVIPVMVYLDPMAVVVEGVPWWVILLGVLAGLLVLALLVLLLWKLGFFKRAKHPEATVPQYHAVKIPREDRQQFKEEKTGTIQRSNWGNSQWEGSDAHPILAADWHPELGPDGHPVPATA
UniProt P09055, residues 21-798: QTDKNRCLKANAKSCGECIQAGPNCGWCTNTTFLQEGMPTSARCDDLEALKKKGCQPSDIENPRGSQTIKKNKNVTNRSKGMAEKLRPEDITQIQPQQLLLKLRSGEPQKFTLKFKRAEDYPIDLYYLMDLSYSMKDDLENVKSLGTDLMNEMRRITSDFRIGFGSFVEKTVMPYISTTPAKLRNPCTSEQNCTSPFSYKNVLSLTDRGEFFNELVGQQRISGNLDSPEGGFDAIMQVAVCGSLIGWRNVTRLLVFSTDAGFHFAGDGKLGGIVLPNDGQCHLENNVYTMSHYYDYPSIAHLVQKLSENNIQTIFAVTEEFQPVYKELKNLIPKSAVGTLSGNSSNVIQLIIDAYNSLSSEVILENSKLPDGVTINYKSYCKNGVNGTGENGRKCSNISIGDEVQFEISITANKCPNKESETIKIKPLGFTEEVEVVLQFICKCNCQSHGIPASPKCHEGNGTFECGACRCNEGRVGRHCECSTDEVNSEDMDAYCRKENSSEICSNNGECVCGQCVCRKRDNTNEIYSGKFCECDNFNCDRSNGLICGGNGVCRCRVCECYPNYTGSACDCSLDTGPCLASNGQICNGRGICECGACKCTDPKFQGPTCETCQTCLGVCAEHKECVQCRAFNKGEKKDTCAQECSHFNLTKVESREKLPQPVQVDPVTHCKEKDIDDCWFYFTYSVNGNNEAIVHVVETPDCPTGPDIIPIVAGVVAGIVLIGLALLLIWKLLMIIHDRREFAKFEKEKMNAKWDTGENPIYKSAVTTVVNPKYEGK
UniProt Q8BLK3: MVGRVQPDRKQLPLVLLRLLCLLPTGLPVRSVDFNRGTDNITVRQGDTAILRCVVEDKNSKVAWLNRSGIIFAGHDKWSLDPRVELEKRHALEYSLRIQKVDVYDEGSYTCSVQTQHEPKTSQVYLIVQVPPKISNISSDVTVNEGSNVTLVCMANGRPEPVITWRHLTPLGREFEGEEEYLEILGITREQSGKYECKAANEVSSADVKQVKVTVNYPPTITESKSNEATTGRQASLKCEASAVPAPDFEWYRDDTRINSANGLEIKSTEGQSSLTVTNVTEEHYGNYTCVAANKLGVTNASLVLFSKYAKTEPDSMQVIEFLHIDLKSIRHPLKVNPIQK
UniProt P97952, residues 19-218: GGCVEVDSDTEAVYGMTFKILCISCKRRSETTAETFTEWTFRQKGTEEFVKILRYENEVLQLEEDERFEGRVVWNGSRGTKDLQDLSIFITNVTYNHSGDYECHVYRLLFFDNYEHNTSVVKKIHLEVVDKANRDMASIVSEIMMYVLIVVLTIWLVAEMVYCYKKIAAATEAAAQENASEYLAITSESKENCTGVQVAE
UniProt Q56A07, residues 30-215: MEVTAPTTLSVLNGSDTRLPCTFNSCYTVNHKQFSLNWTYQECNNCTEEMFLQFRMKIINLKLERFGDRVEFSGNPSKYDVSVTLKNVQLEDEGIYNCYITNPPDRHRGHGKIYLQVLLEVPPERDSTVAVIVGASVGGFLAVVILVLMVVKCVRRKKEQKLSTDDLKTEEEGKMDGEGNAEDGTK
UniProt Q8BHK2, residues 25-215: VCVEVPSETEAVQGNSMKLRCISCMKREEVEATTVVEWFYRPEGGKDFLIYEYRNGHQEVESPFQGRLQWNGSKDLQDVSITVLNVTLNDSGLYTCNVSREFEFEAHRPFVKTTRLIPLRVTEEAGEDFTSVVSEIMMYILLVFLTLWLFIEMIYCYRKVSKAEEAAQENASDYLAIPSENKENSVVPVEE
UniProt B1AS29, residues 32-919: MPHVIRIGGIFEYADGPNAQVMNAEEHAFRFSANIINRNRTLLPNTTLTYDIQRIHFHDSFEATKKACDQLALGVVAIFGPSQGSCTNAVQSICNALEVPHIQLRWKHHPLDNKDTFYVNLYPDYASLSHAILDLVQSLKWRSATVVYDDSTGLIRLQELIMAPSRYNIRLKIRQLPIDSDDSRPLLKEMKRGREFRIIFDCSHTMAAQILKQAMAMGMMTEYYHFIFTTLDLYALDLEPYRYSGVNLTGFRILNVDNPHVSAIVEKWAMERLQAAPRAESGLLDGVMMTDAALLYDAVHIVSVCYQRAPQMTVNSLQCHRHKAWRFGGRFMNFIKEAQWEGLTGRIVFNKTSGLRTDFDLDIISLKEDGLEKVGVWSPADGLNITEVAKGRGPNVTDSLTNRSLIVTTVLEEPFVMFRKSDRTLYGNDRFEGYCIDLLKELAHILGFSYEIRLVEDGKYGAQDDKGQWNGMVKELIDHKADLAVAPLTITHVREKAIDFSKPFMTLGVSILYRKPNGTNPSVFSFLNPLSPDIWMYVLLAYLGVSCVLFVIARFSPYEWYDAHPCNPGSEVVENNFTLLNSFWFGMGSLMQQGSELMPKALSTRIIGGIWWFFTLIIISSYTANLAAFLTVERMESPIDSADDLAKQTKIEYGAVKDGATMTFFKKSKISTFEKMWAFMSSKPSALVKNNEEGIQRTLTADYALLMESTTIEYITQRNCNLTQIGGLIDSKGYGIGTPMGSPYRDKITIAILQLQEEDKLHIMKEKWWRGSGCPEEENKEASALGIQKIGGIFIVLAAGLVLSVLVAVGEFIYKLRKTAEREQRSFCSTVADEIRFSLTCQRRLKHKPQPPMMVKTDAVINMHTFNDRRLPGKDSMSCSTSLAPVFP

No constants are given. Whether binding was seen depends on the method and setting. In cells and extracts the contact can be indirect. Here binding means that the protein was enriched with, or labelled near, the bait; the list need not be complete.

Consider “Ca2+-activated potassium channel KCNN3 (from UniProt P58391 1-732)”, for which the binding entry is listed as “binds”.

Cacna2d1 (from UniProt O08532 25-1103): the binding result was “binds”.

On to Cacna2d2 (from UniProt Q6PHS9 19-1154), for which the binding entry is reported as “binds”.

For the molecule Cdh2 (from UniProt P15116 160-906), the binding entry is given as “binds”.

As for Itga5 (from UniProt P11688 45-1053), the binding result is on record as “binds”.

Turning to Itga7 (from UniProt Q61738 34-1179), the binding entry is on record as “binds”.

Itgb1 (from UniProt P09055 21-798): the binding entry is on record as “binds”.

LSAMP (=IgLON3) (from UniProt Q8BLK3): the binding entry is on record as “binds”.

Turning to Ncam, the binding entry is on record as “binds”.

For Nrcam (from UniProt Q810U4 30-1256), the binding result is recorded as “binds”.

On to OPCML (=IgLON1), for which the binding entry was “binds”.

With Scn1b (from UniProt P97952 19-218), the binding result was “binds”.

On to Scn2b (from UniProt Q56A07 30-215), for which the binding result was “binds”.

As for Scn3b (from UniProt Q8BHK2 25-215), the binding entry is “binds”.

With “kainate receptor subunit GRIK3 (from UniProt B1AS29 32-919)”, the binding result is recorded as “binds”.

B1: Cntn1 (protein, UniProt P12960 21-1001)
chain: DFTWHRRYGHGVSEEDKGFGPIFEEQPINTIYPEESLEGKVSLNCRARASPFPVYKWRMNNGDVDLTNDRYSMVGGNLVINNPDKQKDAGVYYCLASNNYGMVRSTEATLSFGYLDPFPPEERPEVKVKEGKGMVLLCDPPYHFPDDLSYRWLLNEFPVFITMDKRRFVSQTNGNLYIANVESSDRGNYSCFVSSPSITKSVFSKFIPLIPIPERTTKPYPADIVVQFKDIYTMMGQNVTLECFALGNPVPDIRWRKVLEPMPSTAEISTSGAVLKIFNIQLEDEGLYECEAENIRGKDKHQARIYVQAFPEWVEHINDTEVDIGSDLYWPCIATGKPIPTIRWLKNGYSYHKGELRLYDVTFENAGMYQCIAENAYGSIYANAELKILALAPTFEMNPMKKKILAAKGGRVIIECKPKAAPKPKFSWSKGTEWLVNSSRILIWEDGSLEINNITRNDGGIYTCFAENNRGKANSTGTLVITNPTRIILAPINADITVGENATMQCAASFDPALDLTFVWSFNGYVIDFNKEITHIHYQRNFMLDANGELLIRNAQLKHAGRYTCTAQTIVDNSSASADLVVRGPPGPPGGLRIEDIRATSVALTWSRGSDNHSPISKYTIQTKTILSDDWKDAKTDPPIIEGNMESAKAVDLIPWMEYEFRVVATNTLGTGEPSIPSNRIKTDGAAPNVAPSDVGGGGGTNRELTITWAPLSREYHYGNNFGYIVAFKPFDGEEWKKVTVTNPDTGRYVHKDETMTPSTAFQVKVKAFNNKGDGPYSLVAVINSAQDAPSEAPTEVGVKVLSSSEISVHWKHVLEKIVESYQIRYWAGHDKEAAAHRVQVTSQEYSARLENLLPDTQYFIEVGACNSAGCGPSSDVIETFTRKAPPSQPPRIISSVRSGSRYIITWDHVVALSNESTVTGYKILYRPDGQHDGKLFSTHKHSIEVPIPRDGEYVVEVRAHSDGGDGVVSQVKISGVSTLS
On to B1, for which the binding result is listed as “binds”.

B2: Cntn4 (protein, UniProt Q69Z26 19-1000)
chain: DDYTLHGPVFVQEPSHVMFPLDSEEKKVKLSCEVKGNPKPHIRWKINGTDVDIGMDFRYSVVDGSLLINNPNKTQDAGTYQCIATNSFGTIVSREAKLQFAYLENFKTRTRSTVSVRRGQGMVLLCGPPPHSGELSYAWIFNEYPSYQDNRRFVSQETGNLYIAKVEKSDVGNYTCVVTNTVTNHKVLGPPTPLILRNDGVMGEYEPKIEVQFPETVPAEKGTTVKLECFALGNPVPTILWRRADGKPIARKARRHKSNGILEIPNFQQEDAGSYECVAENSRGKNVAKGQLTFYAQPNWVQIINDIHVAMEESVFWECKANGRPKPTYRWLKNGDPLLTRDRIQIEQGTLNITIVNLSDAGMYQCVAENKHGVIFSSAELSVIAESPDFSRTLLKRVTLVKVGGEVVIECKPKASPRPVYTWRKGREILRENERITISEDGNLRIINVTKSDAGSYTCIATNHFGTASSTGNVIVKDPTKVMVPPSSMDVTVGESIVLPCQVTHDHSLDIVFTWTFNGHLIDFDKDGDHFERVGGQDSAGDLMIRNIQLKHAGKYVCMVQTSVDKLSVAADLIVRGPPGPPEAVTIDEITDTTAQLSWRPGPDNHSPITMYVIQARTPFSVGWQAVNTVPDLVDGKTFTATVVGLNPWVEYEFRTVAANVIGIGEPSRPSEKRRTEEALPEVTPANVSGGGGSKSELVITWETVPEELQNGRGFGYVVAFRPHGKMIWMLTVLASADASRYVFRNESVRPFSPFEVKVGVFNNKGEGPFSPTTLVYSAEEEPTKPPASIFARSLSATDIEVFWASPIGKNRGRIQGYEVKYWRHDDKEENAKKIRTVGNQTSTKITNLKGSALYHLSVKAYNSAGTGPSSATVNVTTRKPPPSQPPGNIIWNSSDSKIILNWDQVKALDNESEVKGYKVLYRWNRQSSTSVIETNKTSVELSLPFDEDYIIEIKPFSDGGDGSSSEQIRIPKISNSYARGS
B2: the binding result is “binds”.

B3: Cntn5 (protein, UniProt P68500 24-1071)
chain: LSGLSTSYAALLRIKKSSTSPFGSKSRPRFSSPSLGTISVSPPSWRGAAQQYHSPGNLYHSSDAFRQDESVDYGPVFVQEPDDVIFPTDSDEKKVALNCEVRGNPSPSYRWLRNGTEIALESDYRYSLIDGTFIISNPSELRDSGLYQCLATNSFGSILSREATLQFAYLGNFSGRTRSAVSVREGQGVVLMCSPPPHSPEIIYSWVFNEFPSFVAEDSRRFISQETGNLYISKVQTSDVGSYICLVKNAVTNARVLSPPTPLTLRNDGVMGEYEPKIEVHFPFTVTAAKGTTVKMECFALGNPVPTITWMKVNGYIPSKSRLRKSQAVLEIPNLQLDDAGIYECTAENSRGKNSFRGQLQIFTYPHWVQKLNDTQLDSGSPLQWECKATGKPRPTYRWLKNGAPLLPQSRVDTVNGILAIQSVNQSDAGMYQCLAENKYGAIYASAELKILASPPSFELNQVKKSIIVTKDRGVLIECEPQGSPKPAISWRKGDKAVRANKRIAILPDGSLRILNASKADEGKYICQGVNIFGSAEIIASLSVKEPTRIELTPKRTELTVGESIVLNCKAIHDASLDVTFYWTLKGQPIDFEKEGGHFENIRAQASSADLMIRNILLMHAGRYGCRVQTTADSVSDEAELLVRGPPGPPGVVIVEEITESTATLSWSPATDNHSPISSYNLQARSPFSLGWQTVKTVPEVITGDMESAMAVDLNPWVEYEFRVVATNPIGTGDPSIPSRMIRTNEAVPKTAPSNVSGRSGRRHELVIAWEPVSEEFQNGEGFGYIVAFRPNGTRGWKEKMVTSSEASKFIYRDESVPPLTPFEVKVGVYNNKGDGPFSQIVVICSAEGEPTAAPTDVTATSVSVSEIFVVWKHVKESLGRPQGFEISYWKDTEPEDSVETVRTRGNESFVMLTGLEGNTLYHLTVRAYNGAGYGPPSREASTTTKRHPPREPPGNLRWEQQGSQVSLGWEPVRPLANESEVMGYKVFYRQEGHSEGQVIETQKPQAVVPLPEAGVYIIEVRAYSEGGDGTASSQIRVPSYSGGKITS
As to B3, the binding result is recorded as “binds”.

B4: Cntn2 (protein, UniProt Q61330 31-1014)
chain: QGTPATFGPVFEEQPVGLLFPEESAEDQVTLACRARASPPATYRWKMNGTEMNLEPGSRHQLMGGNLVIMSPTKAQDAGVYQCLASNPVGTVVSKEAVLRFGFLQEFSKEERDPVKTHEGWGVMLPCNPPAHYPGLSYRWLLNEFPNFIPTDGRHFVSQTTGNLYIARTNASDLGNYSCLATSHLDFSTKSVFSKFAQLNLAAEDPRLFAPSIKARFPPETYALVGQQVTLECFAFGNPVPRIKWRKVDGSLSPQWGTAEPTLQIPSVSFEDEGTYECEAENSKGRDTVQGRIIVQAQPEWLKVISDTEADIGSNLRWGCAAAGKPRPMVRWLRNGEPLASQNRVEVLAGDLRFSKLNLEDSGMYQCVAENKHGTIYASAELAVQALAPDFRQNPVRRLIPAARGGEISIPCQPRAAPKATILWSKGTEILGNSTRVTVTLDGTLIIRNISRSDEGKYTCFAENFMGKANSTGILSVRDATKITLAPSSADINVGDNLTLQCHASHDPTMDLTFTWTLDDFPVDFDKPGGHYRRASVKETIGDLTILNAQLRHGGTYTCMAQTVVDGASKEATVLVRGPPGPPGGVVVRDIGDTTVQLSWSRGFDNHSPIAKYTLQARTPPSGKWKQVRTNPVNIEGNAETAQVLGLMPWMDYEFRVSASNILGTGEPSGPSSRIRTKEAVPSVAPSGLSGGGGAPGELTINWTPMSREYQNGDGFGYLLSFRRQGSSSWQTARVPGADTQYFVYSNDSIHPYTPFEVKIRSYNRRGDGPESLTAIVYSAEEEPKVAPAKVWAKGSSSSEMNVSWEPVLQDMNGILLGYEIRYWKAGDKEAAADRVRTAGLDSSARVTGLYPNTKYHVTVRAYNRAGTGPASPSADAMTMKPPPRRPPGNISWTFSSSSLSLKWDPVVPLRNESTVTGYKMLYQNDLQPTPMLHLTSKNWIEIPVPEDIGHALVQIRTTGPGGDGIPAEVHIVRNGGTSMMVES
Take B4: the binding entry is “binds”.

B5: Cntn3 (protein, UniProt Q07409 20-1002)
chain: ELLLQGPVFIKEPSNSIFPVDSEDKKITLNCEARGNPSPHYRWQLNGSDIDTSLDHRYKLNGGNLIVINPNRNWDTGSYQCFATNSLGTIVSREAKLQFAYLENFKTRMRSTVSVREGQGVVLLCGPPPHSGELSYAWVFNEYPSFVEEDSRRFVSQETGHLYIAKVEPSDVGNYTCVVTSTVTNTRVLGSPTPLVLRSDGVMGEYEPKIEVQFPETLPAAKGSTVRLECFALGNPVPQINWRRSDGMPFPNKIKLRKFNGMLEIQNFQQEDTGSYECIAENSRGKNVARGRLTYYAKPYWLQLLRDVEIAVEDSLYWECRASGKPKPSYRWLKNGDALVLEERIQIENGALTITNLNVTDSGMFQCIAENKHGLIYSSAELKVVASAPDFSRNPMKKMVQVQVGSLVILDCKPRASPRALSFWKKGDMMVREQARVSFLNDGGLKIMNVTKADAGTYTCTAENQFGKANGTTHLVVTEPTRIILAPSNMDVAVGESVILPCQVQHDPLLDIMFAWYFNGALTDFKKDGSHFEKVGGSSSGDLMIRNIQLKHSGKYVCMVQTGVDSVSSAAELIVRGSPGPPENVKVDEITDTTAQLSWTEGTDSHSPVISYAVQARTPFSVGWQSVRTVPEVIDGKTHTATVVELNPWVEYEFRIVASNKIGGGEPSLPSEKVRTEEAAPEIAPSEVSGGGGSRSELVITWDPVPEELQNGGGFGYVVAFRPLGVTTWIQTVVTSPDNPRYVFRNESIVPFSPYEVKVGVYNNKGEGPFSPVTTVFSAEEEPTVAPSHISAHSLSSSEIEVSWNTIPWKLSNGHLLGYEVRYWNNGGEEESSRKVKVAGNQTSAVLRGLKSNLAYYTAVRAYNSAGAGPFSATVNATTKKTPPSQPPGNVVWNATDTKVLLNWEQVKAMENESEVTGYKVFYRTSSQNNVHVLNTNKTSAELLLPIKEDYIIEVKATTDGGDGTSSEQIRIPRITSMDARGS
Consider B5, for which the binding result was “binds”.
